Measurements reported in PubChem BioAssay AID1671195 (Yale University, 2021).

- Screen: 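Knockdowns that increase or decrease uptake of fluorescent LDL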 (primary screen)
- System: human Huh7 hepatoma cells
- Knock-down reagent: siRNA pool against human genes, 18 nM
- Duration: about 2 to 2.5 days of knockdown, then 8 h LDL uptake
- Challenge: DiI-labelled LDL at 30 µg/ml for 8 h, in lipoprotein-deficient serum medium
- Detection: 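Fluorescent LDL signal imaged in cells, scaled to the plate median, robust z-score for each replicate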
- Direction: robust z-score: higher = more LDL uptake after knockdown
- Active means: 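a gene counts as active if at least two replicate z-scores exceed ±2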
The deposit covers about 22,000 reagents; below is a random part of them. About 1,510 of them (6.9%) count as active. 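Active includes knockdowns raising or lowering LDL uptake; positive z-scores mean more uptake, negative mean less.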

target gene | robust z-score, replicate 1 | robust z-score, replicate 2 | robust z-score, replicate 3 | Call
OR6V1 (olfactory receptor family 6 subfamily V member 1) | 0.382 | 0.835 | 0.423 | inactive
LRRC27 (leucine rich repeat containing 27) | 1.52 | 2.18 | 1.99 | active
MASP1 (MBL associated serine protease 1) | 0.452 | 0.416 | 0.813 | inactive
FRK (fyn related Src family tyrosine kinase) | -0.351 | -0.159 | -0.565 | inactive
EHD3 (EH domain containing 3) | -1.11 | -1 | -0.776 | inactive
BTBD2 (BTB domain containing 2) | 0.31 | 0.419 | 0.18 | inactive
GK5 (glycerol kinase 5) | -0.952 | -0.911 | -0.944 | inactive
KIAA1328 | 0.985 | 1.06 | 0.235 | inactive
ENG (endoglin) | 0.361 | 0.539 | -0.215 | inactive
C10orf120 (chromosome 10 open reading frame 120) | 0.753 | -0.0517 | 0.411 | inactive
CRIPAK (retired record) | 0.147 | 0.0659 | 0.235 | inactive
LINC00691 (long independently transcribed non-coding RNA 691) | 0.952 | 0.617 | 0.251 | inactive
OR2C3 (olfactory receptor family 2 subfamily C member 3) | -0.12 | -0.69 | -0.65 | inactive
PAGR1 (PAXIP1 associated glutamate rich protein 1) | -0.574 | -1.32 | -0.739 | inactive
HARS1 (histidyl-tRNA synthetase 1) | 0.567 | 0.254 | 0.867 | inactive
ZNF507 (zinc finger protein 507) | -0.469 | -0.128 | 0.0563 | inactive
ABCC2 (ATP binding cassette subfamily C member 2) | -0.317 | -0.301 | -0.723 | inactive
MBIP (MAP3K12 binding inhibitory protein 1) | -1.63 | -0.951 | 0.264 | inactive
CDC42SE2 (CDC42 small effector 2) | -0.298 | 0.392 | 0.275 | inactive
LOC388847 (retired record) | -0.734 | -0.883 | -0.622 | inactive
TRPA1 | -0.837 | -0.667 | -0.451 | inactive
ODF1 (outer dense fiber of sperm tails 1) | 0.707 | 0.94 | -0.0452 | inactive
AGBL4 (AGBL carboxypeptidase 4) | -0.627 | -0.311 | 0.575 | inactive
MRPS18C (mitochondrial ribosomal protein S18C) | 0.247 | 0.0674 | -2.52 | inactive
ZBED8 (zinc finger BED-type containing 8) | 1.11 | 0.595 | 0.212 | inactive
LOC440683 (retired record) | -0.0605 | -0.266 | 0.0089 | inactive
TPBGL (trophoblast glycoprotein like) | -0.734 | -0.595 | -0.119 | inactive
CCNJL (cyclin J like) | -0.204 | -1.01 | -0.541 | inactive
CDHR5 (cadherin related family member 5) | 0.0754 | -0.228 | 0.213 | inactive
PROSER3 (proline and serine rich 3) | 0.0371 | 1.74 | 0.303 | inactive
TIMM10 (translocase of inner mitochondrial membrane 10) | -0.773 | -0.258 | -0.527 | inactive
GPR6 (G protein-coupled receptor 6) | -0.429 | 1.39 | 0.901 | inactive
RRH (retinal pigment epithelium-derived rhodopsin homolog) | 1.3 | 0.843 | 1.2 | inactive
TMEM102 (transmembrane protein 102) | -0.352 | -0.317 | -0.164 | inactive
SEC31A (SEC31 homolog A, COPII component) | 0.0519 | -0.918 | 0.535 | inactive
LINC00479 (long independently transcribed non-coding RNA 479) | 0.898 | 0.881 | 0.685 | inactive
LOC387931 (retired record) | -0.524 | -0.314 | -0.649 | inactive
TRIM54 (tripartite motif containing 54) | -0.706 | -1.04 | -1.03 | inactive
KY (kyphoscoliosis peptidase) | -0.27 | -0.198 | -0.184 | inactive
GSTA3 (glutathione S-transferase alpha 3) | 1.52 | 4.18 | 2.29 | active
SCGN (secretagogin, EF-hand calcium binding protein) | -0.363 | -0.12 | -0.258 | inactive
CD164L2 (CD164 molecule like 2) | -0.236 | 0.335 | 0.437 | inactive
HNRNPH3 (heterogeneous nuclear ribonucleoprotein H3) | 0.768 | 0.785 | 0.874 | inactive
LOC442243 (retired record) | -1.16 | -1.07 | -1.37 | inactive
MMP14 (matrix metallopeptidase 14) | -0.526 | 0.28 | -0.505 | inactive
TBC1D9 (TBC1 domain family member 9) | -1.06 | -1.4 | -1.47 | inactive
GARIN5A (golgi associated RAB2 interactor 5A) | -0.16 | -0.241 | 0.0457 | inactive
LINC01104 (long independently transcribed non-coding RNA 1104) | 0.75 | 0.0429 | 0.644 | inactive
TWIST1 (twist family bHLH transcription factor 1) | 0.00446 | -0.306 | -1.02 | inactive
INTS6 (integrator complex subunit 6) | 0.503 | 0.383 | 0.574 | inactive
GJD4 (gap junction protein delta 4) | 2.8 | 2.09 | 2.29 | active
RPRD1B (regulation of nuclear pre-mRNA domain containing 1B) | -0.0331 | -0.16 | 0.185 | inactive
H2BP3 (H2B histone pseudogene 3) | -1.41 | -1.36 | -1.39 | inactive
PCDHGA12 (protocadherin gamma subfamily A, 12) | -0.31 | 0.341 | 0.0447 | inactive
TARBP1 (tRNA guanosine 2 -O-methyltransferase TARBP1) | 1.08 | 1.6 | 1.67 | inactive
DNAI4 (dynein axonemal intermediate chain 4) | -1.93 | -1.99 | -2 | inactive
FKBP7 (FKBP prolyl isomerase 7) | 3.28 | 3.48 | 2.74 | active
SLIT3 (slit guidance ligand 3) | 3.04 | 1.54 | 0.64 | inactive
CCR6 (C-C motif chemokine receptor 6) | 1.78 | 0.411 | 1.47 | inactive
PPP4R1 (protein phosphatase 4 regulatory subunit 1) | 1.31 | 1.51 | 1.07 | inactive
HTRA4 (HtrA serine peptidase 4) | -2.65 | -2.27 | -2.28 | active
CLEC4A (C-type lectin domain family 4 member A) | -1.33 | -2.33 | -0.743 | inactive
LOC440619 (retired record) | 1.2 | 1.62 | 1.45 | inactive
EXOSC3 (exosome component 3) | -1.04 | -0.362 | -0.761 | inactive
PZP (PZP alpha-2-macroglobulin like) | 2.64 | 1.62 | 2.9 | active
ABCC13 (ATP binding cassette subfamily C member 13 (pseudogene)) | -0.131 | 0.154 | -0.044 | inactive
ZMYM1 (zinc finger MYM-type containing 1) | 0.715 | 0.343 | 0.563 | inactive
CDA (cytidine deaminase) | -0.247 | 0.205 | -0.422 | inactive
